Assays:
[1] = tested on: add-G6 riboswitch; experiment: cells; type: cell-based; settings: Homo sapiens, HEK293, Prestwick library compounds at 100 μM, HEK 293, read-out: Fold Induction of luciferase activity
From the text: (§1) A truncated human beta-globin intron sequence was synthesized and inserted in the coding sequence of a firefly luciferase gene. A mutant human DHFR exon 2 was synthesized and inserted in the middle of this truncated beta-globin intron sequence using Golden gate cloning strategy. Aptamers including xpt-G/A^1, ydhl-G/A^2, yxj^3, add^4, gdg6-G/A^5 (citations for the aptamers are incorporated herein by reference) were synthesized as oligonucleotides (“oligos”) with 4 nucleotide overhang at the 5′ end that are complementary to two different BsaI sites individually (IDT), annealed and ligated to BsaI-digested mDHFR-Luci-acceptor vector.
3.5×10^4 HEK 293 cells were plated in a 96-well flat bottom plate the day before transfection. Plasmid DNA (500 ng) was added to a tube or a 96-well U-bottom plate. […] Then, 50 μL of this diluted transfection reagent was added to the DNA, mixed, and incubated at RT for 20 min. Finally, 7 μL of this solution was added to a well of cells in the 96-well plate.
24 hours after media change, plates were removed from the incubator, and equilibrated to RT for several minutes on a lab bench, then aspirated. Glo-lysis buffer (Promega, 100 μL, RT) was added, and the plates maintained at RT for at least 5 minutes. […] Following a 5 min incubation at RT, luminescence was measured using a Tecan machine with 500 mSec read time. […]

[2] = tested on: xpt-G17 riboswitch; experiment: Luciferase reporter assay, xpt-G17 riboswitch, transfected HEK 293 cells; type: cell-based; settings: Homo sapiens, HEK293, Prestwick library compounds at 100 μM, preliminary screen
From the text: as §1
3.5×10^4 HEK 293 cells were plated in a 96-well flat bottom plate the day before transfection. Plasmid DNA (500 ng) was added to a tube or a 96-well U-bottom plate. […]
24 hours after media change, plates were removed from the incubator, and equilibrated to RT for several minutes on a lab bench, then aspirated. […] Following a 5 min incubation at RT, luminescence was measured using a Tecan machine with 500 mSec read time. The luciferase activity was expressed as mean relative light unit (RLU)±S.D., and fold induction was calculated as the luciferase activity obtained with guanine treatment divided by luciferase activity obtained without guanine treatment.

Question: How did the fold induction at 100 µM [1] turn out when `C(=C\c1ccccc1)/CN1CCN(C(c2ccccc2)c2ccccc2)CC1` [Cinnarizine] was run?
Answer: The fold induction at 100 µM was 3.6.

Question: What about the fold induction at 100 µM [2] of the same compound?
Answer: Its fold induction at 100 µM is 3.5.

From patent publication US11371077B2, “High throughput cell-based screening for aptamers” (MeiraGTx UK II Limited, priority 2016, dated 2022)
